For four molecules, binding results are on record in publication PMC5436702.

Chains of the proteins cited; added tags and fusions are not shown. Residues count along the entry.
UniProt Q9LJF3, residues 24-1164: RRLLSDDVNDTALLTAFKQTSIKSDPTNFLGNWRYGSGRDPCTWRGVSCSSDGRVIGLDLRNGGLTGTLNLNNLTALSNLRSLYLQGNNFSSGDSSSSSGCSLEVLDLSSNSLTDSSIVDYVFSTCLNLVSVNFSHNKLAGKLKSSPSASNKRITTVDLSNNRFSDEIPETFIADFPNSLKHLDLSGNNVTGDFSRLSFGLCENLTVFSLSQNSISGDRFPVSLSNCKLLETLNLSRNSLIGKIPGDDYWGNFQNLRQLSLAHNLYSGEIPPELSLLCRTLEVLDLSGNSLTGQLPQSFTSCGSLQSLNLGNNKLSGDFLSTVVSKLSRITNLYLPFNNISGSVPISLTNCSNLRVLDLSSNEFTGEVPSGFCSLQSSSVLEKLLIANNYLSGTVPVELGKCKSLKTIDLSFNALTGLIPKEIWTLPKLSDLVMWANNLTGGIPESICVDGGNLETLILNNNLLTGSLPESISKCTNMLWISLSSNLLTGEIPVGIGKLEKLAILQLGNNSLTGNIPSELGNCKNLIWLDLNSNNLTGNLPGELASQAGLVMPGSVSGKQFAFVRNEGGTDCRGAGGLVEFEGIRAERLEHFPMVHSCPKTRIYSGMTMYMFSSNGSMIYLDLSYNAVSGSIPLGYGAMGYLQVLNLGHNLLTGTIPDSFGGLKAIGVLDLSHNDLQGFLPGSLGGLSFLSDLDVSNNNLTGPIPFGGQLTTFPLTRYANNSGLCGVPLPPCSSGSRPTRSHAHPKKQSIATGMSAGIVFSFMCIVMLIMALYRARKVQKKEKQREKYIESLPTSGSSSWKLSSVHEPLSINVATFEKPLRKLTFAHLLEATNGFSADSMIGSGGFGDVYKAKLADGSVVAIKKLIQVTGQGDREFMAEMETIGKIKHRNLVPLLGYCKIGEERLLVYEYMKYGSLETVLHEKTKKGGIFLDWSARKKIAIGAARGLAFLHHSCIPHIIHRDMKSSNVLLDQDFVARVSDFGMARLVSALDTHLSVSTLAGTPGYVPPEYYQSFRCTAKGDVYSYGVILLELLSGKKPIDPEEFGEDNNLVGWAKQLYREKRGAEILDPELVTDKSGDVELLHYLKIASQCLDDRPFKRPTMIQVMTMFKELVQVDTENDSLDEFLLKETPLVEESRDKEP

These are yes or no findings as the source states them, for the method shown. In cells and extracts the contact can be indirect. Some results given as binding are weak or reduced against the parent protein; the word gives no strength. Tags and fused reporters may be left off the sequences shown.

Assay [1] has as its target BRI1-LIKE3 (BRL3) tagged with cYFP (Arabidopsis thaliana) (UniProt Q9LJF3). Nature of the assay: split reporter; BiFC with nYFP- and cYFP-tagged proteins transiently expressed in N. benthamiana leaf cells; confocal imaging; mitochondrial marker Mt-rk as transformation control.
The target of assay [2] is BRL3 tagged with CFP (Arabidopsis thaliana) (UniProt Q9LJF3). Nature of the assay: FRET or BRET; acceptor photobleaching FRET (CFP donor, YFP acceptor) in leaf epidermis cells of N. benthamiana with transient expression; leaf discs treated with glucose (6% or 2%), 1 uM flg22 or 1 or 100 uM BL. For orientation: In BRET a luciferase serves as donor, and the signal depends on an acceptor being close.

B1: Regulator of G-protein Signaling 1 (AtRGS1) tagged with nYFP (protein, UniProt Q8H1F2 1-459)
chain: MASGCALHGGCPSDYVAVAISVICFFVLLSRSVLPCLIHKAPRTNSSSFWIPVIQVISSFNLLFSIMMSVNLLRFRTKHWWRYCYLWAVWIEGPLGFGLLMSCRITQAFQLYFIFVKKRLPPVKSYIFLPLVLLPWIFGAAIIHATKPLNDKCHMGLQWTFPVAGLHALYVLALIAFTRAVRHVEFRFDELRDLWKGILVSATSIVIWVTAFVLNEIHEEISWLQVASRFVLLVTGGILVVVFFSISSNQPLLSQISLKKRQNFEFQRMGQALGIPDSGLLFRKEEFRPVDPNEPLDKLLLNKRFRHSFMEFADSCYAGETLHFFEEVYEHGKIPEDDSIRRIYMARHIMEKFIVAGAEMELNLSHKTRQEILTTQDLTHTDLFKNALNEVMQLIKMNLVRDYWSSIYFIKFKEEESCHEAMHKEGYSFSSPRLSSVQGSDDPFYQEHMSKSSRCSSPG
For B1, in assay [1], the binding result is “binds”.

B2: AtRGS1 with a C-terminal YFP tag (protein, UniProt Q8H1F2 1-459)
chain: MASGCALHGGCPSDYVAVAISVICFFVLLSRSVLPCLIHKAPRTNSSSFWIPVIQVISSFNLLFSIMMSVNLLRFRTKHWWRYCYLWAVWIEGPLGFGLLMSCRITQAFQLYFIFVKKRLPPVKSYIFLPLVLLPWIFGAAIIHATKPLNDKCHMGLQWTFPVAGLHALYVLALIAFTRAVRHVEFRFDELRDLWKGILVSATSIVIWVTAFVLNEIHEEISWLQVASRFVLLVTGGILVVVFFSISSNQPLLSQISLKKRQNFEFQRMGQALGIPDSGLLFRKEEFRPVDPNEPLDKLLLNKRFRHSFMEFADSCYAGETLHFFEEVYEHGKIPEDDSIRRIYMARHIMEKFIVAGAEMELNLSHKTRQEILTTQDLTHTDLFKNALNEVMQLIKMNLVRDYWSSIYFIKFKEEESCHEAMHKEGYSFSSPRLSSVQGSDDPFYQEHMSKSSRCSSPG
For B2, the binding entry in assay [2] is given as “binds”.

B3: AtHIR2 tagged with nYFP (negative control membrane protein) (protein, UniProt Q9CAR7 1-286)
chain: MGQALGCIQVDQSNVAIKETFGKFDEVLEPGCHCLPWCLGSQVAGHLSLRVQQLDVRCETKTKDNVFVTVVASIQYRALAESAQDAFYKLSNTRNQIQAYVFDVIRASVPKLDLDSTFEQKNDIAKTVETELEKAMSHYGYEIVQTLIVDIEPDVHVKRAMNEINAASRMREAASEKAEAEKILQIKRAEGEAESKYLSGMGIARQRQAIVDGLRNSVLAFSESVPGTSSKDVMDMVLVTQYFDTLKEIGASSKSNSVFIPHGPGAVRDIASQIRDGLLQGNSAAE
For the molecule B3, the binding result in assay [1] is recorded as “no binding”.

B4: G-alpha subunit GPA1 tagged with nYFP (protein, UniProt P18064 1-383)
chain: MGLLCSRSRHHTEDTDENTQAAEIERRIEQEAKAEKHIRKLLLLGAGESGKSTIFKQIKLLFQTGFDEGELKSYVPVIHANVYQTIKLLHDGTKEFAQNETDSAKYMLSSESIAIGEKLSEIGGRLDYPRLTKDIAEGIETLWKDPAIQETCARGNELQVPDCTKYLMENLKRLSDINYIPTKEDVLYARVRTTGVVEIQFSPVGENKKSGEVYRLFDVGGQRNERRKWIHLFEGVTAVIFCAAISEYDQTLFEDEQKNRMMETKELFDWVLKQPCFEKTSFMLFLNKFDIFEKKVLDVPLNVCEWFRDYQPVSSGKQEIEHAYEFVKKKFEELYYQNTAPDRVDRVFKIYRTTALDQKLVKKTFKLVDETLRRRNLLEAGLL
As for B4, in assay [1], the binding result is given as “binds”.
